Data taken from the supplement of paper PMC3334620.
In all, about 33,000 sequences were measured (“E-score (-0.5 to 0.5)”: median about -0.0034, highest 2% from about 0.25 on). The list shows a part of the results.

Each sequence was assayed against T1, Yap3 (UniProt P38749) (assay: PBM E-score (8-mer binding enrichment) (E-score (-0.5 to 0.5)); higher = stronger / more preferred TF binding). Conditions: protein concentration: 100 nM; construct: GST-full length.
T1 sequence: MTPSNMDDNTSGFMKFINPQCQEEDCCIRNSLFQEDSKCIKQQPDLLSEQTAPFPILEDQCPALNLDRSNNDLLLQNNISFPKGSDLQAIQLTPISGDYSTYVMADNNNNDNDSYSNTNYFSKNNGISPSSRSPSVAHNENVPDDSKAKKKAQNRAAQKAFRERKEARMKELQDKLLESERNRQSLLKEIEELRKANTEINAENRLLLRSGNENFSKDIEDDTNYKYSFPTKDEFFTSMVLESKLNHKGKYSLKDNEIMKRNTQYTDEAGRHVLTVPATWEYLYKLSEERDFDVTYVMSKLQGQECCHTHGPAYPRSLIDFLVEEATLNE
Outline: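 Full-length yeast transcription factors or their DNA-binding domains, GST-tagged and expressed with PURExpress, were applied at about 100-200 nM to universal all-10-mer Agilent arrays. These arrays had been made double-stranded by primer extension on fresh or once-stripped slides. Detection used fluorescent anti-GST, normalisation used masliner, and E-scores for ungapped eight-base words pooled with reverse complements came from the Universal PBM Analysis Suite.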

| Sequence | PBM E-score |
| --- | --- |
| ATAAGTTA | 0.245 |
| GGTAATAC | 0.208 |
| CAGCTATA | -0.0127 |
| GCGTAAGC | -0.0375 |
| CCGTGTAG | -0.0145 |
| ATGCATAG | -0.0028 |
| CGCTAAGA | -0.0966 |
| CAACCATA | 0.161 |
| CTCAGTCC | -0.232 |
| CGAATCAA | 0.194 |
| CGCGTGCA | -0.073 |
| GCTAATAA | 0.144 |
| AGAAAAGG | 0.0998 |
| ATAAACGG | 0.205 |
| TACATACA | 0.209 |
| GATGATAC | 0.00906 |
| CGCGTTAA | 0.0876 |
| CGGCGACG | -0.0597 |
| CCTATCCG | -0.0541 |
| AATCGTGA | -0.112 |
| CAGGCAGG | -0.0524 |
| GCCCGCGC | -0.178 |
| AATCGTCA | 0.144 |
| CACCCCTG | -0.299 |
| ACCGTAGG | -0.34 |

Some of the entries above in a different format.
Sequence | PBM E-score
CTCAGTCC | -0.232
CGGCGACG | -0.0597
CCTATCCG | -0.0541
ACCGTAGG | -0.34

Later entries.

| Sequence | PBM E-score |
| --- | --- |
| AGAGAATC | -0.0708 |
| CGAACACA | 0.174 |
| CCGATCGC | -0.0488 |
| TCATCGAA | -0.0175 |
| AGTATGAT | 0.221 |
| GGGAGATA | 0.026 |
| GGATTGCA | 0.116 |
| AAAGGTGA | 0.0224 |
| CGCGGTTA | -0.0159 |
| ACGTTTTG | 0.0279 |
| GTCTAAAA | 0.00304 |
| CCGGTGAG | -0.114 |
| GGCGAGCA | -0.0472 |
| CACGCCAA | -0.0782 |
| ACGTCAGT | -0.0573 |
| GACGTATA | -0.098 |
| TTACCAAA | 0.22 |
| AGTGGTTC | -0.0567 |
| GATGAGGC | -0.131 |
| ATAAAAGC | 0.0507 |
| AGTGTCGG | 0.0449 |
| CCTGTACG | -0.111 |
| CAATCGGA | 0.207 |
| CACGTCGG | -0.166 |
| AGTATACT | -0.0564 |

| Sequence | PBM E-score |
| --- | --- |
| CACCGGGA | -0.246 |
| ATTAGAAA | 0.104 |
| GCAAAGGC | -0.239 |
| CACATAAG | 0.053 |
| AACTGATT | -0.0243 |
| GGAAGACC | -0.336 |
| ACGCCGAT | -0.0663 |
| GAGCGTAA | 0.198 |
| AGCCAACT | -0.203 |
| CCATATAA | 0.131 |
| AGCGTGCG | 0.0339 |
| AACAGCTA | -0.0101 |
| GAAGAGAC | -0.0037 |
| CACAACCC | -0.00206 |
| CATTTAGC | -0.0541 |
| GTAGAAGA | 0.118 |
| AATACGAA | 0.138 |
| CCGCCCTA | -0.199 |
| AGCGCAAG | -0.0984 |
| AGTGGGTC | -0.219 |
| CTCCGTCA | -0.169 |
| CTAAGTAA | 0.114 |
| ACGTAACG | 0.208 |
| AGGCACCT | -0.208 |
| AATCTGCT | -0.00975 |

| Sequence | PBM E-score |
| --- | --- |
| AGGTTGCC | -0.0836 |
| CTCAATCA | 0.092 |
| CCTGGCCC | -0.254 |
| AAAGTTGG | 0.0701 |
| AGCGTAAC | 0.0789 |
| GACGAGTC | -0.183 |
| CCGTTACG | 0.0295 |
| ACGCTCTA | -0.162 |
| CTTTCCCA | -0.00553 |
| CGCTGCGA | 0.0607 |
| GGTGCCAC | -0.24 |
| TAATGATA | 0.239 |
| AAAATGAT | 0.265 |
| AGCTACCA | -0.0542 |
| AATCAGGT | 0.0919 |
| TCAACTCA | 0.05 |
| GAGCCAAA | 0.0785 |
| AAGTTCAA | 0.149 |
| AATCTCCC | -0.126 |
| CTATAAAG | 0.074 |
| GATTTGCC | 0.076 |
| AAAGCAAA | 0.205 |
| CACCCATC | 0.0126 |
| GACCGTGA | -0.0857 |
| CTGTGGCC | -0.361 |

| Sequence | PBM E-score |
| --- | --- |
| AGCTGTTC | -0.0682 |
| CAATTAAG | 0.0652 |
| AAACAGGT | 0.0263 |
| GCCAGGAC | -0.145 |
| AAGAAGGG | -0.0033 |
| GGAAGAAA | 0.103 |
| TAGGGACA | 0.00256 |
| GCCGCACA | -0.0211 |
| ATATAACC | 0.116 |
| GCAGCCCA | -0.309 |
| AAACCTAG | 0.0499 |
| CCCTTTGA | -0.125 |
| ATGCAAGG | -0.206 |
| AAAATATA | 0.19 |
| AGTTTGGA | 0.0755 |
| CCAACAAA | 0.0456 |
| ACACAGCT | -0.0406 |
| TAGGTGCA | -0.0111 |
| GAAGATTA | 0.089 |
| AACGAATT | 0.208 |
| TCATCACA | 0.0786 |
| AAACCTAA | 0.0806 |
| ACAGGAAG | 0.0376 |
| GAAGAACA | 0.225 |
| ATTCGGTA | 0.157 |

2 consecutive entries from above, quoted:

| Sequence | PBM E-score |
| --- | --- |
| GACGTATA | -0.098 |
| TTACCAAA | 0.22 |

Single entries from the entries so far.
Entry of CTATAAAG under PBM E-score: 0.074
Entry of AAAATATA under PBM E-score: 0.19

Going on with the list.

| Sequence | PBM E-score |
| --- | --- |
| GACTCATC | -0.108 |
| CAGGTGCC | -0.173 |
| ACGCACGG | -0.0399 |
| AAAGAAGT | 0.121 |
| ACTGAGCA | -0.131 |
| ATGGGGGA | -0.226 |
| CAACTTGA | 0.199 |
| GTCGATAA | 0.0282 |
| AGATGGAC | 0.0235 |
| AATGCGCT | -0.0354 |
| ACGAATGG | 0.16 |
| CTTTGGGC | 0.00338 |
| CAACGCTA | -0.0508 |
| CGCAACCA | -0.0285 |
| CGAGAGGA | 0.0282 |
| ATAGCTAG | -0.067 |
| GTCAAGGA | -0.151 |
| CCCAGCAA | -0.138 |
| GCTAACCC | -0.168 |
| GATTTCTA | 0.115 |
| AGTTGACC | 0.0115 |
| CCAGAGAC | -0.0324 |
| CATTGCAG | 0.00712 |
| CGACGGTA | 0.157 |
| CGGGACAA | -0.195 |

| Sequence | PBM E-score |
| --- | --- |
| AATTACAT | 0.229 |
| GTTGGTGA | 0.13 |
| ATTTGAGG | -0.078 |
| GGTCACTA | -0.105 |
| CAGATGGC | -0.0154 |
| ACATGAAA | 0.0243 |
| CATATGGC | 0.0183 |
| GGCACCAA | -0.0285 |
| ATTCGGAC | 0.214 |
| GATGTAGA | -0.0207 |
| GGTCTACA | -0.0981 |
| AAAGCTCG | -0.0592 |
| GTAAATGA | 0.169 |
| AACGCAAC | 0.21 |
| ACTAATAT | 0.301 |
| ATCGGTCG | 0.0365 |
| TCTCGGAA | -0.0419 |
| CATTCGAG | 0.0517 |
| AATTAAGG | 0.0609 |
| CCGTGTGA | -0.0103 |
| CGTGCAGA | -0.0695 |
| AGCCAAAG | -0.0605 |
